Data published in patent publication US20080161239A1.
Results are given in words; binding and its absence hold for the method and conditions named. For part of these data: Binding seen in cells or lysates may run through a third protein. Some results given as binding are weak or reduced against the parent protein; the word gives no strength. For part of these data: Tags and fused reporters may be left off the sequences shown.

By UniProt entry, the sequences of proteins in these tests, tags left out. Where a name states a change or a piece, a line headed by the entry shows the natural chain unless it says otherwise.
UniProt P63208: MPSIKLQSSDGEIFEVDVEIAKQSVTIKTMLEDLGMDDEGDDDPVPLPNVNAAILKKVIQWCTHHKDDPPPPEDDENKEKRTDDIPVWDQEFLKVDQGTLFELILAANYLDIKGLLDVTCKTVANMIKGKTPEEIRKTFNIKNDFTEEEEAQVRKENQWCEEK
UniProt P05067: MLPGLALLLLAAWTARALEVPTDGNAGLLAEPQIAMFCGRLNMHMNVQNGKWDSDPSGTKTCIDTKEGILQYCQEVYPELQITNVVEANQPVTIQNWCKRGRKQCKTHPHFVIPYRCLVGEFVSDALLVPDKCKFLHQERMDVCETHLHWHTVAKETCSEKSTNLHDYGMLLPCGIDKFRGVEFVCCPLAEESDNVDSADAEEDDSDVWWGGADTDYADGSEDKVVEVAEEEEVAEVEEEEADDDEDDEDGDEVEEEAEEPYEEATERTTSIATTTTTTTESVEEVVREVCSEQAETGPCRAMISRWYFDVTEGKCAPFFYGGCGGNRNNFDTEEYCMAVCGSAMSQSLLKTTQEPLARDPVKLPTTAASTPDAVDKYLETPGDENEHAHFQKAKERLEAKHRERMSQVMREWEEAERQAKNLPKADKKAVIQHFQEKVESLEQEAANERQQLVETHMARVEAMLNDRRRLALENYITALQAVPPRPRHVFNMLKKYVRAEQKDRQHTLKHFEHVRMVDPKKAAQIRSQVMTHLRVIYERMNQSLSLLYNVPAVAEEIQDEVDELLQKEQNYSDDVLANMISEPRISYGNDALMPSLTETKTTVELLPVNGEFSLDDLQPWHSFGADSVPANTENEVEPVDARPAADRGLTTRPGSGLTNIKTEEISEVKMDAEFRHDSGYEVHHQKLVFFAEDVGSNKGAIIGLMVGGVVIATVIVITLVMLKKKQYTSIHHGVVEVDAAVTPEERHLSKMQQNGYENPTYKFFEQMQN

Experiments:
[1] = target: human type Skp1 (hSkp1), S-phase kinase-associated protein 1A (human) (UniProt P63208); test: co-immunoprecipitation with anti-Flag agarose from COS7 lysate, Western blot with anti-Skp1 antibody
[2] = target: T1, human type YPEL1 (hYPEL1) having the Myc tag introduced to the N terminus (human) (UniProt O60688); test: co-immunoprecipitation with anti-Flag agarose from COS7 lysate, Western blot with anti-Myc antibody
T1 sequence (looked up): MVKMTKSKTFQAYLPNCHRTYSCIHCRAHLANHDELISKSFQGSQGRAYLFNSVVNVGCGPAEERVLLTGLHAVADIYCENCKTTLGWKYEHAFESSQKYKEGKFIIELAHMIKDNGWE

[3] = target: amyloid precursor protein consisting of 695 amino acids (APP695) (human) (UniProt P05067); test: co-immunoprecipitation with anti-Flag agarose from HEK293A lysate, Western blot with anti-APP antibodies
[4] = target: CTFα protein (C-terminal fragment α of APP, from cleavage by α-secretase) (human) (UniProt P05067); test: as above
[5] = target: CTFβ protein (C-terminal fragment β of APP, from cleavage by β-secretase) (human) (UniProt P05067); test: as above
[6] = target: T1, human type YPEL1 (hYPEL1) having the Myc tag introduced to the N terminus (human); test: co-immunoprecipitation with anti-Flag agarose from COS7 lysate, Western blot
[7] = target: human type Skp1 (hSkp1), S-phase kinase-associated protein 1A (human) (UniProt P63208); test: as above
[8] = target: amyloid precursor protein consisting of 695 amino acids (APP695) (human) (UniProt P05067); test: co-immunoprecipitation with anti-Flag agarose from HEK293A lysate, Western blot
[9] = target: CTFα protein (C-terminal fragment α of APP, from cleavage by α-secretase) (human) (UniProt P05067); test: as above
[10] = target: CTFβ protein (C-terminal fragment β of APP, from cleavage by β-secretase) (human) (UniProt P05067); test: as above
[11] = target: S-phase kinase-associated protein 1A (Skp1), positive clone of the Pretransformed Matchmaker human brain cDNA library (human) (UniProt P63208); test: yeast two-hybrid screen of a human brain cDNA library, growth selection and X-α-gal activity
[12] = target: T2, yippee-like 1 (YPEL1), positive clone of the Pretransformed Matchmaker human brain cDNA library (human) (UniProt O60688); test: as above
T2 sequence (looked up): T1 sequence (looked up)

Measured: binding

B1: hFBL2 incorporating a Flag tag (human F-box and leucine rich repeat protein 2 with a Flag tag at the N terminus) (protein, not shown: small tags and cut ends)
chain: MVFSNNDEGLINKKLPKELLLRIFSFLDIVTLCRCAQISKAWNILALDGSNWQRIDLFNFQTDVEGRVVENISKRCGGFLRKLSLRGCIGVGDSSLKTFAQNCRNIEHLNLNGCTKITDSTCYSLSRFCSKLKHLDLTSCVSITNSSLKGISEGCRNLEYLNLSWCDQITKDGIEALVRGCRGLKALLLRGCTQLEDEALKHIQNYCHELVSLNLQSCSRITDEGVVQICRGCHRLQALCLSGCSNLTDASLTALGLNCPRLQILEAARCSHLTDAGFTLLARNCHELEKMDLEECILITDSTLIQLSIHCPKLQALSLSHCELITDDGILHLSNSTCGHERLRVLELDNCLLITDVALEHLENCRGLERLELYDCQQVTRAGIKRMRAQLPHVKVHAYFAPVTPPTAVAGSGQRLCRCCVIL
binds: [1] | [2] | [3] | [4] | [5] | [6] | [7] | [8] | [9] | [10]

B2: hFBL2 expressed from the pGBKT7 vector for the Yeast Two-Hybrid system (protein, not shown: large carriers)
chain: B1 chain
binds: [11] | [12]
